Laboratory results reported in patent US20240299359A1, “PHARMACEUTICAL COMPOSITION FOR ANIMALS CONTAINING 5-HYDROXY-METHYLIMIDAZOLIDINE-2,4-DIONE COMPOUND AS ACTIVE INGREDIENT” (KYONGBO PHARM. CO., LTD., priority 2021, published 2024).
Several values for one entry are separate records, joined by “and”; a condition that tells them apart may be missing. Identical values can stand only once. This continues a long series; more values of the same kind are listed elsewhere.

Assay: 13-week repeated oral toxicity: weight measurement
Assay type: in vivo, beagle
Description: During the 13-week test period starting from the day before administration, the weight was measured a total of 15 times before administration (pre), before administration on the day of administration, and every week over the 13-week test period after the first administration at a predetermined time (remaining feed measurement time) before administration of the test substance (on every Tuesday during the test period).

CN1C(=O)NC(=O)C1O (stereo not drawn) [KBP-001, 5-hydroxy-1-methylimidazolidine-2,4-dione]
Weight (500 mg/kg repeated oral (G3), female, week 0, individual animals): 9.9 and 9.8 and 8.8
Weight (500 mg/kg repeated oral (G3), female, week 1, individual animals): 9.9 (2×) and 9.0
Weight (500 mg/kg repeated oral (G3), female, week 2, individual animals): 9.8 (2×) and 8.8
Weight (500 mg/kg repeated oral (G3), female, week 3, individual animals): 9.9 and 10.0 and 9.0
Weight (500 mg/kg repeated oral (G3), female, week 4, individual animals): 9.9 and 10.2 and 9.2
Weight (500 mg/kg repeated oral (G3), female, week 5, individual animals): 9.9 and 10.3 and 9.3
Weight (500 mg/kg repeated oral (G3), female, week 6, individual animals): 9.8 and 10.3 and 9.4
Weight (500 mg/kg repeated oral (G3), female, week 7, individual animals): 9.8 and 10.1 and 9.4
Weight (500 mg/kg repeated oral (G3), female, week 8, individual animals): 9.7 and 10.4 and 9.3
Weight (500 mg/kg repeated oral (G3), female, week 9, individual animals): 9.6 and 10.2 and 9.5
Weight (500 mg/kg repeated oral (G3), female, week 10, individual animals): 9.6 and 10.4 and 9.5
Weight (500 mg/kg repeated oral (G3), female, week 11, individual animals): 9.7 and 10.4 and 9.6
Weight (500 mg/kg repeated oral (G3), female, week 12, individual animals): 9.7 (2×) and 10.4
Weight (500 mg/kg repeated oral (G3), female, week 13, individual animals): 9.9 and 10.4 and 9.7
Weight (500 mg/kg repeated oral (G3), female, week pre, individual animals): 9.9 and 9.8 and 8.8
Weight (500 mg/kg repeated oral (G3), male, week 0, individual animals): 9.1 and 10.5
Weight (500 mg/kg repeated oral (G3), male, week 1, individual animals): 10.1 and 9.3 and 10.6
Weight (500 mg/kg repeated oral (G3), male, week 2, individual animals): 9.9 and 9.3 and 10.5
Weight (500 mg/kg repeated oral (G3), male, week 3, individual animals): 9.8 and 9.3 and 10.5
Weight (500 mg/kg repeated oral (G3), male, week 4, individual animals): 10.0 and 9.4 and 10.7
Weight (500 mg/kg repeated oral (G3), male, week 5, individual animals): 10.2 and 9.5 and 10.7
Weight (500 mg/kg repeated oral (G3), male, week 6, individual animals): 9.6 and 10.6
Weight (500 mg/kg repeated oral (G3), male, week 7, individual animals): 9.6 and 10.6
Weight (500 mg/kg repeated oral (G3), male, week 8, individual animals): 9.6 and 10.4
Weight (500 mg/kg repeated oral (G3), male, week 9, individual animals): 9.5 and 10.5
Weight (500 mg/kg repeated oral (G3), male, week 10, individual animals): 9.6 and 10.5
Weight (500 mg/kg repeated oral (G3), male, week 11, individual animals): 9.6 and 10.4
Weight (500 mg/kg repeated oral (G3), male, week 12, individual animals): 9.7 and 10.5
Weight (500 mg/kg repeated oral (G3), male, week 13, individual animals): 9.7 and 10.6
Weight (500 mg/kg repeated oral (G3), male, week pre, individual animals): 9.4 and 10.6
Weight (1,000 mg/kg repeated oral (G4), female, week 0, individual animals): 9.9 and 9.5 and 8.9
Weight (1,000 mg/kg repeated oral (G4), female, week 1, individual animals): 9.4 and 9.7 and 9.2
Weight (1,000 mg/kg repeated oral (G4), female, week 2, individual animals): 9.1 and 9.8 and 9.0
Weight (1,000 mg/kg repeated oral (G4), female, week 3, individual animals): 9.1 (2×) and 9.9
Weight (1,000 mg/kg repeated oral (G4), female, week 4, individual animals): 9.4 and 10.1 and 9.2
Weight (1,000 mg/kg repeated oral (G4), female, week 5, individual animals): 9.4 and 10.0 and 9.2
Weight (1,000 mg/kg repeated oral (G4), female, week 6, individual animals): 9.3 and 9.9 and 9.0
Weight (1,000 mg/kg repeated oral (G4), female, week 7, individual animals): 9.3 and 9.9 and 9.1
Weight (1,000 mg/kg repeated oral (G4), female, week 8, individual animals): 9.3 and 10.0 and 9.2
Weight (1,000 mg/kg repeated oral (G4), female, week 9, individual animals): 9.5 and 10.2 and 9.4
Weight (1,000 mg/kg repeated oral (G4), female, week 10, individual animals): 9.6 and 10.3 and 9.4
Weight (1,000 mg/kg repeated oral (G4), female, week 11, individual animals): 9.6 and 10.3 and 9.5
Weight (1,000 mg/kg repeated oral (G4), female, week 12, individual animals): 9.6 and 10.3 and 9.5
Weight (1,000 mg/kg repeated oral (G4), female, week 13, individual animals): 9.5 (2×) and 10.3
Weight (1,000 mg/kg repeated oral (G4), female, week pre, individual animals): 9.9 and 9.5 and 8.9
Weight (1,000 mg/kg repeated oral (G4), male, week 0, individual animals): 11.3 and 10.0 and 9.3
Weight (1,000 mg/kg repeated oral (G4), male, week 1, individual animals): 11.1 and 10.1 and 9.4
Weight (1,000 mg/kg repeated oral (G4), male, week 2, individual animals): 11.3 and 9.9 and 9.1
Weight (1,000 mg/kg repeated oral (G4), male, week 3, individual animals): 11.1 and 10.0 and 9.0
Weight (1,000 mg/kg repeated oral (G4), male, week 4, individual animals): 11.4 and 10.1 and 9.2
Weight (1,000 mg/kg repeated oral (G4), male, week 5, individual animals): 11.4 and 10.2 and 9.3
Weight (1,000 mg/kg repeated oral (G4), male, week 6, individual animals): 11.0 and 9.9 and 9.2
Weight (1,000 mg/kg repeated oral (G4), male, week 7, individual animals): 11.2 and 10.0 and 9.2
Weight (1,000 mg/kg repeated oral (G4), male, week 8, individual animals): 11.1 and 10.0 and 9.2
Weight (1,000 mg/kg repeated oral (G4), male, week 9, individual animals): 11.0 and 10.2 and 9.4
Weight (1,000 mg/kg repeated oral (G4), male, week 10, individual animals): 11.1 and 10.2 and 9.4
Weight (1,000 mg/kg repeated oral (G4), male, week 11, individual animals): 11.2 and 10.1 and 9.3
Weight (1,000 mg/kg repeated oral (G4), male, week 12, individual animals): 11.0 and 10.3 and 9.3
Weight (1,000 mg/kg repeated oral (G4), male, week 13, individual animals): 11.1 and 10.3 and 9.2
Weight (1,000 mg/kg repeated oral (G4), male, week pre, individual animals): 11.3 and 10.0 and 9.3
